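The test systems are human melanoma cell lines, treated with two drugs together for 72 h and then stained and imaged. Values are the number of DAPI-stained nuclei as a percentage of the DMSO control: 100 is no effect, lower means fewer cells. Every drug was used at one fixed concentration, the higher of two screened. No replicate spread is given; individual values may be noisy.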 Only some of the drugs and lines screened are listed, without regard to their results. An entry leaves out what has no value listed here. A dash means that no value is listed here.

First drug in all entries: PD173074, 0.5 µM, CCN(CC)CCCCNc1ncc2cc(-c3cc(OC)cc(OC)c3)c(NC(=O)NC(C)(C)C)nc2n1

Compounds and concentrations:
SNS-314: O=C(Nc1cccc(Cl)c1)Nc1ncc(CCNc2ncnc3ccsc23)s1 at 0.004 µM
lapatinib: CS(=O)(=O)CCNCc1ccc(-c2ccc3ncnc(Nc4ccc(OCc5cccc(F)c5)c(Cl)c4)c3c2)o1 at 4 µM
embelin: CCCCCCCCCCCC1=C(O)C(=O)C=C(O)C1=O at 6 µM
sunitinib: CCN(CC)CCNC(=O)c1c(C)[nH]c(/C=C2\C(=O)Nc3ccc(F)cc32)c1C at 2 µM
decitabine: Nc1ncn([C@H]2C[C@H](O)[C@@H](CO)O2)c(=O)n1 at 0.5 µM
veliparib: C[C@]1(c2nc3c(C(N)=O)cccc3[nH]2)CCCN1 at 7 µM
crizotinib: C[C@@H](Oc1cc(-c2cnn(C3CCNCC3)c2)cnc1N)c1c(Cl)ccc(F)c1Cl at 1 µM
GW0742: Cc1cc(SCc2sc(-c3ccc(C(F)(F)F)c(F)c3)nc2C)ccc1OCC(=O)O at 10 µM
gemcitabine: Nc1ccn([C@@H]2O[C@H](CO)[C@@H](O)C2(F)F)c(=O)n1 at 0.002 µM
TCS401: O=C(O)C(=O)Nc1sc2c(c1C(=O)O)CCNC2 at 8.33 µM
cediranib: COc1cc2c(Oc3ccc4[nH]c(C)cc4c3F)ncnc2cc1OCCCN1CCCC1 at 2 µM
OSU-03012: NCC(=O)Nc1ccc(-n2nc(C(F)(F)F)cc2-c2ccc3c(ccc4ccccc43)c2)cc1 at 5 µM
GW2580: COc1ccc(COc2ccc(Cc3cnc(N)nc3N)cc2OC)cc1 at 5 µM
GSK0660: COC(=O)c1sccc1S(=O)(=O)Nc1ccc(Nc2ccccc2)cc1OC at 5 µM
T0901317: O=S(=O)(c1ccccc1)N(CC(F)(F)F)c1ccc(C(O)(C(F)(F)F)C(F)(F)F)cc1 at 7 µM
cisplatin: N.N.[Cl][Pt][Cl] at 8 µM

Second drug	501mel	C32	COLO 792	A101D	A375	COLO 800
crizotinib	-	83.4	79.5	-	-	65.8
sunitinib	-	78.5	42.0	-	-	45.1
lapatinib	-	90.1	53.5	-	-	59.5
T0901317	63.3	100	81.1	80.9	101	49.4
TCS401	99.9	104	-	109	158	-
cediranib	-	105	-	-	-	-
embelin	85.1	114	83.5	111	127	62.6
veliparib	-	112	109	-	-	117
cisplatin	-	106	91.3	-	-	83.0
GW0742	-	107	84.2	-	-	78.0
gemcitabine	-	98.6	78.4	-	-	17.3
OSU-03012	-	102	73.8	-	-	65.6
GW2580	77.3	119	76.6	106	96.3	94.1
decitabine	-	96.0	77.5	-	-	71.5
GSK0660	75.0	95.1	89.7	94.3	96.1	63.5
SNS-314	-	77.3	45.9	-	-	49.0

Once more, the final 2:

* GSK0660 : 501mel: 75.0; C32: 95.1; COLO 792: 89.7; A101D: 94.3; A375: 96.1; COLO 800: 63.5
* SNS-314 : C32: 77.3; COLO 792: 45.9; COLO 800: 49.0

Values as published with doi:10.1371/journal.pone.0140310, rounded.